# Results reported in the supplement of paper PMC10849652.
# Sequences of proteins named here, by UniProt entry; tags and fusion partners are left off. A change or cut given only in a name is not applied to a line headed by its entry.
# UniProt Q15208: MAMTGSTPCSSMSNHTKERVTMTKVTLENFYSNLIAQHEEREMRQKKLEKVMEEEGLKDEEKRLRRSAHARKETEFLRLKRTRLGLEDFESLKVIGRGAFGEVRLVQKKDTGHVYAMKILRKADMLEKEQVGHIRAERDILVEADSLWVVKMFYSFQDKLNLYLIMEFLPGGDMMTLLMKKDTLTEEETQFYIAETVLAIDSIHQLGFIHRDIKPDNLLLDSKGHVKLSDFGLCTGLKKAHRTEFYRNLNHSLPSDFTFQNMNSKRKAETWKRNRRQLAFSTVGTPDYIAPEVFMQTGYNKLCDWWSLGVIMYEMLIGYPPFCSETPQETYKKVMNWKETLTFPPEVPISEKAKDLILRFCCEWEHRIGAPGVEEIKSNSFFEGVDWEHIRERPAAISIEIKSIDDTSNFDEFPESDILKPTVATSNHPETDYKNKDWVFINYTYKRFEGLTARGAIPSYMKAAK
# UniProt Q13277: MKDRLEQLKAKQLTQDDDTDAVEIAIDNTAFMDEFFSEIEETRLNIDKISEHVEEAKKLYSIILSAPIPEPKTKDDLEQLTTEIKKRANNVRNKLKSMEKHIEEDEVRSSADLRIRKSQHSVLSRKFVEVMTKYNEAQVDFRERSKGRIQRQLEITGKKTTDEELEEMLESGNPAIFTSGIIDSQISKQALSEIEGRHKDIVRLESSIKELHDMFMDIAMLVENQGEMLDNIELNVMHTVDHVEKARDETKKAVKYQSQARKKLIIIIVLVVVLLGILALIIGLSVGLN
# UniProt P61764, whole entry, looked up: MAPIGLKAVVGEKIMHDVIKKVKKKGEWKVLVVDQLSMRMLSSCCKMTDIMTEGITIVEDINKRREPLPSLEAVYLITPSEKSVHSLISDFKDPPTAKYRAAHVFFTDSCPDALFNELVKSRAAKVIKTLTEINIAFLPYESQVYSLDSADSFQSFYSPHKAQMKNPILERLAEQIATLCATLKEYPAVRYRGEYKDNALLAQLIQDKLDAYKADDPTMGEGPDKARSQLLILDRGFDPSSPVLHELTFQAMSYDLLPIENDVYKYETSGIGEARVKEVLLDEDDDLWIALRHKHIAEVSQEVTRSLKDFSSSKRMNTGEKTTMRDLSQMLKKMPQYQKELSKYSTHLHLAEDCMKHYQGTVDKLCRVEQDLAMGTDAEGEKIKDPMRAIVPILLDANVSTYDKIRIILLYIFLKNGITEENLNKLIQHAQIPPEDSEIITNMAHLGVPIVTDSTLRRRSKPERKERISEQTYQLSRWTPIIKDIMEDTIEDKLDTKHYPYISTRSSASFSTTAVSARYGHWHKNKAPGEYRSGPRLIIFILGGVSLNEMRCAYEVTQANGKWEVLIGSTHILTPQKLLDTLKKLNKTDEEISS
# UniProt Q13190: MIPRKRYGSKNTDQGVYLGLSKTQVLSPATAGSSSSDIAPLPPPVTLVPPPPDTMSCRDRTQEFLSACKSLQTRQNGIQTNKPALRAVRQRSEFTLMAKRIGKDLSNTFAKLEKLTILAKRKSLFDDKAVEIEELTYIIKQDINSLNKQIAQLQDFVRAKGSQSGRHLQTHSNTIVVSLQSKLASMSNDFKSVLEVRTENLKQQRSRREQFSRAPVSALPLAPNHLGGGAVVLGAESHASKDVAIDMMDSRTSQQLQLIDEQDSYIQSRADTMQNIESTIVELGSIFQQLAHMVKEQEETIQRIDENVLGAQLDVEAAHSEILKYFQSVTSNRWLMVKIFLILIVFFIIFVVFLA
# UniProt Q15526: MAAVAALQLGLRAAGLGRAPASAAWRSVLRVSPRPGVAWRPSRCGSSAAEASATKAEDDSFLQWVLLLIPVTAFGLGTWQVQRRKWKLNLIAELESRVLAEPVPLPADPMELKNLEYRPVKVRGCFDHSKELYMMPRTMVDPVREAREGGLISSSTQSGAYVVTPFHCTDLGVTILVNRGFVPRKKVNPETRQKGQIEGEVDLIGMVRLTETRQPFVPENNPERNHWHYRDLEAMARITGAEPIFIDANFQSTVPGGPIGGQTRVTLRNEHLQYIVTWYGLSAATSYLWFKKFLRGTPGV
# UniProt Q8NBK3: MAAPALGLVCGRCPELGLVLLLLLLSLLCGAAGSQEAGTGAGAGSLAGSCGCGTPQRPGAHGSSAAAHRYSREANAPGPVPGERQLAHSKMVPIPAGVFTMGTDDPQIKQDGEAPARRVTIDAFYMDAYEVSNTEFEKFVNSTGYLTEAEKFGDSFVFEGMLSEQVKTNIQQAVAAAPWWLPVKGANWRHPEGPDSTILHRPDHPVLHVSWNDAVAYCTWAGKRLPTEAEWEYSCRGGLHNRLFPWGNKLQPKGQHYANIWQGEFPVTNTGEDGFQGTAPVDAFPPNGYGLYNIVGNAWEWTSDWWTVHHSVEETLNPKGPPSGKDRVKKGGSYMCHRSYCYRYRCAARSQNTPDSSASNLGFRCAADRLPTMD
# UniProt Q9NZ72: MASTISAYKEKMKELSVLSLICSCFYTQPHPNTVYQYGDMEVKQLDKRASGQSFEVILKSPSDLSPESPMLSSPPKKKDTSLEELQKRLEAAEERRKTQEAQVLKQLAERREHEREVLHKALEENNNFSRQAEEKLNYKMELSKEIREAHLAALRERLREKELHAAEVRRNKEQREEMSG
# UniProt Q15831: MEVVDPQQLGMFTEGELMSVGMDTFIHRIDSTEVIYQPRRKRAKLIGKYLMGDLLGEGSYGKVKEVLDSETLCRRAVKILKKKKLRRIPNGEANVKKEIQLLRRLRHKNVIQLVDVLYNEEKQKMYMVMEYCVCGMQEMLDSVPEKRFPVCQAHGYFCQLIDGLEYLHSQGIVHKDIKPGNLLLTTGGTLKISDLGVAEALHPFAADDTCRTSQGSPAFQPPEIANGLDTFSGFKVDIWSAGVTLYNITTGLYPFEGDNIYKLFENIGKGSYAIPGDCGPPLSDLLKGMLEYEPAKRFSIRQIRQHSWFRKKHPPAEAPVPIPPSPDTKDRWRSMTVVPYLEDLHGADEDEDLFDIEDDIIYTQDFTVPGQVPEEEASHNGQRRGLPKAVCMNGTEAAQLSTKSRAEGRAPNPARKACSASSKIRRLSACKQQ
# UniProt Q86TM6, whole entry, looked up: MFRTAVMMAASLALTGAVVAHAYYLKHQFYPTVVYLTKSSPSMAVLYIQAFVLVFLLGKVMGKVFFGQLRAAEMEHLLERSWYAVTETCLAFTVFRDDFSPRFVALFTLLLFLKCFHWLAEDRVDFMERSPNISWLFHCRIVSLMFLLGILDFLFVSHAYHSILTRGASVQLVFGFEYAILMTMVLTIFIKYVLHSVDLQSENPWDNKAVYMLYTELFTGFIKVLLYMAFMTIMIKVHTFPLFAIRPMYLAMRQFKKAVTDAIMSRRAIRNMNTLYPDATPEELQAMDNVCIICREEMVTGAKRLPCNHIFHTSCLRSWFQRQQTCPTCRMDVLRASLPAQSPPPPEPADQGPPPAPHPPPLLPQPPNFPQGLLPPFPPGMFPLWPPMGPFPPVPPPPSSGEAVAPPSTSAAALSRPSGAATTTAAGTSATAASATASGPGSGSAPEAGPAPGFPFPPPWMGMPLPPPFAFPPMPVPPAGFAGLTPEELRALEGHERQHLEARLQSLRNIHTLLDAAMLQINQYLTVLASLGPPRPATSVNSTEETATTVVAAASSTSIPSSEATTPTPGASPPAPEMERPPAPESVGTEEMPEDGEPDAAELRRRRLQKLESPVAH
# UniProt P46977: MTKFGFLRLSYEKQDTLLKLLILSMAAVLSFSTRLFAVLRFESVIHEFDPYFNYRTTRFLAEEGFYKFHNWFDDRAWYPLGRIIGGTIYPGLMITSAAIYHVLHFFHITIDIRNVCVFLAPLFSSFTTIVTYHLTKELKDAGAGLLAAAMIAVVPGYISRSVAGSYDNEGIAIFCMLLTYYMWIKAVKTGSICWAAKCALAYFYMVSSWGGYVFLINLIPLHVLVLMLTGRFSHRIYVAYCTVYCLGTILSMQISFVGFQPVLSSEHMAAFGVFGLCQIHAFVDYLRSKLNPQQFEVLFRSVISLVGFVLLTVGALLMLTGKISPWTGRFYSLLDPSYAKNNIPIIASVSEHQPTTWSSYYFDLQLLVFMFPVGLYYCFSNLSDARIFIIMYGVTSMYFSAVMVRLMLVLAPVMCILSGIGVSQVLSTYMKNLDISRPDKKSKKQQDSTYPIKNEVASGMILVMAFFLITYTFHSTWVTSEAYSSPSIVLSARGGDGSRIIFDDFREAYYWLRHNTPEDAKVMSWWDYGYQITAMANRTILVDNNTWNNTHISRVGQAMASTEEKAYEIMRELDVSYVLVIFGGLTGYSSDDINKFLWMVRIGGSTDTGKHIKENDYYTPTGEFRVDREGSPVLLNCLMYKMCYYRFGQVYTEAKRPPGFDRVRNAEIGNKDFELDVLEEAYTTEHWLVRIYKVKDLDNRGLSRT
# UniProt Q8N5C8: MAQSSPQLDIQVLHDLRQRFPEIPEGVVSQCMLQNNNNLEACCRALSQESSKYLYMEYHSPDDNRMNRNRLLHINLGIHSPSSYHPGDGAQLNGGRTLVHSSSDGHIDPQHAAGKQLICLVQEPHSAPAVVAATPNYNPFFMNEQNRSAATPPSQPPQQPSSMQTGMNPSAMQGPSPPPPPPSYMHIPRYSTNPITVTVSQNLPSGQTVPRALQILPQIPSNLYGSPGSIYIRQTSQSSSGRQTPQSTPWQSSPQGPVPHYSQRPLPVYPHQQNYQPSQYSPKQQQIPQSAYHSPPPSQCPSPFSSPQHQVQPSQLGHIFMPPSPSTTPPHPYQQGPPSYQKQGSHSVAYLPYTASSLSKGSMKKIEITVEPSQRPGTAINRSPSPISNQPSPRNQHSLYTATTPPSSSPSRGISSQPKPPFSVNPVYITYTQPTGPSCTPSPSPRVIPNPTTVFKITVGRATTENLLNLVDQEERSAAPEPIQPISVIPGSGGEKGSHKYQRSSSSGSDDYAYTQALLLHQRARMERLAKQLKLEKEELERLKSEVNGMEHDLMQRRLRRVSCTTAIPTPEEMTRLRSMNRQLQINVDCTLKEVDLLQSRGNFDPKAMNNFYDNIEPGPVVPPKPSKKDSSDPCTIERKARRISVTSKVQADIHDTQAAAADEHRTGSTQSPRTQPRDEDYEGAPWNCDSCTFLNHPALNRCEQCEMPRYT
# This is one part of the list.
# Key:
# Test in all cases: log2 fold change, soluble protein after heating vs DMSO (PISA); higher = thermal stabilisation; K562 lysate, 10 uM; active = over 0.2 and 3.5 SD of the protein, either way, in both replicates (recomputed)
# erlotinib = compound: C#Cc1cccc(Nc2ncnc3cc(OCCOC)c(OCCOC)cc23)c1 [erlotinib]
# In short: (§1)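 Log-two fold change in thermal stability relative to solvent controls is reported from duplicates. For each sample, crude K562 extract from dounce-homogenised pellets in PBS pH 7.4 with 1 mM MgCl2, at 1 mg/mL protein, was treated with 10 μM compound for 30 min. Aliquots heated for 3 min across 48°C-58°C were pooled, brought to 0.5% NP-40 at 4°C and cleared at 21,000xg for 90 min. The supernatant was quantified by TMTpro 16plex LC-MS/MS with channel sums equalised.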
# [1] = compound: C/C(=N\NC(=O)C1=CC(=CC=C1)S(=O)(=O)N2CCOCC2)/C3=C(C=CC(=C3)Cl)O
# In short: as §1
# [2] = compound: C1=CC(=CC=C1C2=NC3=C(N2)C=C(C=C3)C(=O)N)OC4=CC=C(C=C4)Cl
# In short: as §1
# [3] = compound: C1=CC2=C(C=CC(=C2)/C=C\3/C(=O)NC(=NCC4=CC=CS4)S3)N=C1
# In short: as §1
# [4] = compound: C1=CC2=NC=CN=C2C=C1/C=C/3\C(=O)NC(=O)S3
# In short: as §1
# [5] = compound: C1=CC=C(C=C1)C2=NC(=C(N2)C3=CC=NC=C3)C4=CC(=C(C=C4)Cl)O
# In short: as §1
# [6] = compound: C1=CC=C2C(=C1)C3=NNC4=CC=CC(=C43)C2=O
# In short: as §1
# [7] = compound: C1CCN(C1)C(=O)NC2=CC=CC(=C2)NC3=NC=C(C(=N3)NCCC4=CN=CN4)Br
# In short: as §1
# [8] = compound: C1CN(CCC1(CC2=CC=C(C=C2)Cl)N)C3=NC=NC4=C3C=CN4
# In short: as §1
# IRAK-1-4 Inhibitor I = compound: C1COCCN1CCN2C3=CC=CC=C3N=C2NC(=O)C4=CC(=CC=C4)[N+](=O)[O-] [IRAK-1-4 Inhibitor I]
# In short: as §1
# ibrutinib = compound: C=CC(=O)N1CCC[C@@H](n2nc(-c3ccc(Oc4ccccc4)cc3)c3c(N)ncnc32)C1 [ibrutinib]
# In short: as §1
# [9] = compound: CC(=O)c1cnc2ccc(-c3cc(Cl)c(O)c(Cl)c3)nc2c1N[C@H]1CC[C@H](CN(C)C)CC1
# In short: as §1
# ralimetinib = compound: CC(C)(C)Cn1c(N)nc2ccc(-c3[nH]c(C(C)(C)C)nc3-c3ccc(F)cc3)nc21 [ralimetinib]
# In short: as §1
# [10] = compound: CC(C)(O)CC(=O)NCCn1ccc2ncnc(Nc3ccc(Oc4cccc(C(F)(F)F)c4)c(Cl)c3)c21
# In short: as §1
# [11] = compound: CC(C)C1=C2N=C(C=C(N2N=C1)NCC3=CC=CC=C3)NCCCCCCN
# In short: as §1
# [12] = compound: CC1=C(C(CC(=O)N1)C2=CC=C(C=C2)C(F)(F)F)C(=O)NC3=C(C=C4C(=C3)C=NN4)F
# In short: as §1
# [13] = compound: CC1=C(C2=C(C=C1)C(=O)C3=CC=CC=C3N2CCCN)C
# In short: as §1
# [14] = compound: CC1=C(C=C(C=C1)NC(=O)C2=CC(=CC=C2)C(C)(C)C#N)NC3=CC4=C(C=C3)N=CN(C4=O)C
# In short: as §1
# [15] = compound: CC1=C(C=C(C=C1)NC(=O)C2=CC(=CC=C2)N(C)C)NC(=O)C3=CC=C(C=C3)O
# In short: as §1
# [16] = compound: CC1=CC=C(C=C1)SC2=C3C=C(SC3=CN=C2)C(=O)N
# In short: as §1
Target,log2 fold change (erlotinib),log2 fold change [1],log2 fold change [2],log2 fold change [3],log2 fold change [4],log2 fold change [5],log2 fold change [6],log2 fold change [7],log2 fold change [8],log2 fold change (IRAK-1-4 Inhibitor I),log2 fold change (ibrutinib),log2 fold change [9],log2 fold change (ralimetinib),log2 fold change [10],log2 fold change [11],log2 fold change [12],log2 fold change [13],log2 fold change [14],log2 fold change [15],log2 fold change [16]
STK38 (UniProt Q15208),inactive: -0.018,inactive: -0.029,inactive: -0.063,inactive: -0.005,inactive: 0.038,inactive: 0.029,inactive: 0.176,inactive: -0.002,inactive: 0.055,inactive: -0.006,inactive: 0.008,active: 0.361,inactive: 0.036,inactive: 0.048,inactive: 0.025,inactive: 0.006,inactive: 0.017,inactive: 0.014,inactive: -0.003,inactive: 0.002
STX3 (UniProt Q13277),inactive: -0.059,inactive: 0,inactive: -0.012,inactive: 0.021,inactive: -0.016,inactive: 0.015,inactive: 0.007,inactive: 0.022,inactive: -0.002,inactive: 0.002,inactive: 0.018,inactive: 0.021,inactive: 0.037,inactive: -0.022,inactive: -0.006,inactive: 0.015,inactive: -0.002,inactive: -0.031,inactive: -0.003,inactive: 0.01
STXBP1 (UniProt P61764),inactive: 0.021,inactive: 0.044,inactive: 0.003,inactive: -0.054,inactive: 0.055,inactive: -0.011,inactive: -0.061,inactive: -0.034,inactive: 0.024,inactive: -0.007,inactive: -0.021,inactive: 0.072,inactive: 0,inactive: 0.009,inactive: -0.034,inactive: 0.013,inactive: 0.023,inactive: 0.01,inactive: 0.016,inactive: 0.032
STX5 (UniProt Q13190),inactive: 0.033,inactive: -0.056,inactive: -0.047,inactive: 0.012,inactive: -0.064,inactive: 0.025,inactive: -0.034,inactive: 0.006,inactive: 0.006,inactive: -0.008,inactive: -0.071,inactive: 0.015,inactive: 0.011,inactive: -0.032,inactive: 0.042,inactive: 0.032,inactive: 0.027,inactive: 0,inactive: -0.032,inactive: -0.025
SURF1 (UniProt Q15526),inactive: 0.028,inactive: 0.017,inactive: -0.171,inactive: -0.049,inactive: 0.146,inactive: -0.033,inactive: 0.031,inactive: -0.04,inactive: 0.034,inactive: 0.013,inactive: 0.01,inactive: 0.001,inactive: 0.003,inactive: 0.007,inactive: -0.017,inactive: 0.024,inactive: 0.02,inactive: 0.013,inactive: 0.024,inactive: 0.027
SUMF1 (UniProt Q8NBK3),inactive: -0.068,inactive: 0.022,inactive: -0.007,inactive: -0.114,inactive: 0.024,inactive: -0.007,inactive: 0.014,inactive: -0.023,inactive: -0.052,inactive: 0.04,inactive: 0.017,inactive: 0.035,inactive: 0.043,inactive: 0.016,inactive: -0.02,inactive: 0.062,inactive: 0.025,inactive: -0.033,inactive: 0.028,inactive: -0.05
STMN3 (UniProt Q9NZ72),inactive: 0.012,inactive: 0.01,inactive: -0.003,inactive: -0.122,inactive: -0.062,inactive: -0.026,inactive: 0.043,inactive: -0.097,inactive: 0.091,inactive: -0.006,inactive: 0.006,inactive: -0.028,inactive: 0.093,inactive: 0.025,inactive: -0.089,inactive: -0.003,inactive: -0.059,inactive: 0.012,inactive: -0.011,inactive: 0.009
STK11 (UniProt Q15831),inactive: -0.005,inactive: -0.033,inactive: 0.026,inactive: 0.024,inactive: -0.005,inactive: -0.011,inactive: 0.042,inactive: 0.046,inactive: 0.013,inactive: -0.013,inactive: 0.035,inactive: -0.172,inactive: -0.025,inactive: 0.03,inactive: -0.022,inactive: 0.008,inactive: 0.031,inactive: 0.01,inactive: 0.011,inactive: -0.012
SYVN1 (UniProt Q86TM6),inactive: -0.004,inactive: 0.007,inactive: -0.074,inactive: 0.041,inactive: 0.014,inactive: 0.021,inactive: -0.145,inactive: 0.048,inactive: -0.018,inactive: 0.06,inactive: 0.036,inactive: 0.032,inactive: 0.037,inactive: -0.077,inactive: 0.014,inactive: 0.063,inactive: -0.008,inactive: 0.041,inactive: -0.051,inactive: -0.002
STT3A (UniProt P46977),inactive: -0.058,inactive: -0.059,inactive: -0.097,inactive: 0.009,inactive: -0.003,inactive: -0.047,inactive: -0.007,inactive: -0.044,inactive: -0.029,inactive: -0.016,inactive: -0.024,inactive: 0.009,inactive: 0.015,inactive: -0.015,inactive: -0.032,inactive: 0.024,inactive: 0.02,inactive: -0.014,inactive: -0.007,inactive: 0.026
TAB3 (UniProt Q8N5C8),inactive: 0.009,,inactive: 0.046,,inactive: -0.035,inactive: -0.014,,inactive: -0.042,inactive: -0.022,inactive: 0.116,inactive: -0.154,inactive: 0.175,inactive: 0.032,inactive: -0.205,inactive: -0.008,inactive: 0.103,inactive: -0.026,inactive: -0.014,inactive: 0.094,inactive: -0.066

# 2 records picked at random from those above, as already listed:
Target,log2 fold change (erlotinib),log2 fold change [1],log2 fold change [2],log2 fold change [3],log2 fold change [4],log2 fold change [5],log2 fold change [6],log2 fold change [7],log2 fold change [8],log2 fold change (IRAK-1-4 Inhibitor I),log2 fold change (ibrutinib),log2 fold change [9],log2 fold change (ralimetinib),log2 fold change [10],log2 fold change [11],log2 fold change [12],log2 fold change [13],log2 fold change [14],log2 fold change [15],log2 fold change [16]
STK38 (UniProt Q15208),inactive: -0.018,inactive: -0.029,inactive: -0.063,inactive: -0.005,inactive: 0.038,inactive: 0.029,inactive: 0.176,inactive: -0.002,inactive: 0.055,inactive: -0.006,inactive: 0.008,active: 0.361,inactive: 0.036,inactive: 0.048,inactive: 0.025,inactive: 0.006,inactive: 0.017,inactive: 0.014,inactive: -0.003,inactive: 0.002
STX5 (UniProt Q13190),inactive: 0.033,inactive: -0.056,inactive: -0.047,inactive: 0.012,inactive: -0.064,inactive: 0.025,inactive: -0.034,inactive: 0.006,inactive: 0.006,inactive: -0.008,inactive: -0.071,inactive: 0.015,inactive: 0.011,inactive: -0.032,inactive: 0.042,inactive: 0.032,inactive: 0.027,inactive: 0,inactive: -0.032,inactive: -0.025
